For assay [1], the target named is T1, HCN1 (human (endogenous in induced neurons)) (UniProt O60741).
T1 sequence: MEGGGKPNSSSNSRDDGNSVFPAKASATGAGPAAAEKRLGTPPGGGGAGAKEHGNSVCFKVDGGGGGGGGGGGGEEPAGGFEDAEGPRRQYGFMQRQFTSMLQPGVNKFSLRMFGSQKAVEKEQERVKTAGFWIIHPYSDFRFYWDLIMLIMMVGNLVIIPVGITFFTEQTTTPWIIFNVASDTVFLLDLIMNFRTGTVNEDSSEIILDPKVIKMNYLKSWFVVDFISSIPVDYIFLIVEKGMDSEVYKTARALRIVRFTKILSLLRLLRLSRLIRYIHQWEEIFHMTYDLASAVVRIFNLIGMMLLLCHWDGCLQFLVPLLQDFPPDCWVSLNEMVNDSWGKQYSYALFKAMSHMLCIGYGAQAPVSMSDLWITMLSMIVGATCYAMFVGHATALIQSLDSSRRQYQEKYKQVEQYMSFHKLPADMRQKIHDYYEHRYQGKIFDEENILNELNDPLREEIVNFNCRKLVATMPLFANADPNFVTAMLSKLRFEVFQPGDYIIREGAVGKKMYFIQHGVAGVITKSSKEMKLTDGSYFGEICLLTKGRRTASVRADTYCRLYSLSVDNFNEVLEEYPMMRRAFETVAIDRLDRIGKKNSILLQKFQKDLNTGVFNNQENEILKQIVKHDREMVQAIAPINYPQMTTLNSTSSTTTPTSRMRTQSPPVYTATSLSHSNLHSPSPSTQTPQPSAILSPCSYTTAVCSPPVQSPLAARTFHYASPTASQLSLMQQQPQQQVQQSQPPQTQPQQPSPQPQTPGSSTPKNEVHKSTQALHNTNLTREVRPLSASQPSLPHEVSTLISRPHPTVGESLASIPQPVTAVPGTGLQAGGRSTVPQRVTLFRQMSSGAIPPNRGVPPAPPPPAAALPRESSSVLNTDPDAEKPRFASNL
The assay can be described thus: affinity purification with mass spectrometry.

Protein sequences, listed by entry. Tags and fused reporters are not part of them. Residues count along the entry.
UniProt Q13936: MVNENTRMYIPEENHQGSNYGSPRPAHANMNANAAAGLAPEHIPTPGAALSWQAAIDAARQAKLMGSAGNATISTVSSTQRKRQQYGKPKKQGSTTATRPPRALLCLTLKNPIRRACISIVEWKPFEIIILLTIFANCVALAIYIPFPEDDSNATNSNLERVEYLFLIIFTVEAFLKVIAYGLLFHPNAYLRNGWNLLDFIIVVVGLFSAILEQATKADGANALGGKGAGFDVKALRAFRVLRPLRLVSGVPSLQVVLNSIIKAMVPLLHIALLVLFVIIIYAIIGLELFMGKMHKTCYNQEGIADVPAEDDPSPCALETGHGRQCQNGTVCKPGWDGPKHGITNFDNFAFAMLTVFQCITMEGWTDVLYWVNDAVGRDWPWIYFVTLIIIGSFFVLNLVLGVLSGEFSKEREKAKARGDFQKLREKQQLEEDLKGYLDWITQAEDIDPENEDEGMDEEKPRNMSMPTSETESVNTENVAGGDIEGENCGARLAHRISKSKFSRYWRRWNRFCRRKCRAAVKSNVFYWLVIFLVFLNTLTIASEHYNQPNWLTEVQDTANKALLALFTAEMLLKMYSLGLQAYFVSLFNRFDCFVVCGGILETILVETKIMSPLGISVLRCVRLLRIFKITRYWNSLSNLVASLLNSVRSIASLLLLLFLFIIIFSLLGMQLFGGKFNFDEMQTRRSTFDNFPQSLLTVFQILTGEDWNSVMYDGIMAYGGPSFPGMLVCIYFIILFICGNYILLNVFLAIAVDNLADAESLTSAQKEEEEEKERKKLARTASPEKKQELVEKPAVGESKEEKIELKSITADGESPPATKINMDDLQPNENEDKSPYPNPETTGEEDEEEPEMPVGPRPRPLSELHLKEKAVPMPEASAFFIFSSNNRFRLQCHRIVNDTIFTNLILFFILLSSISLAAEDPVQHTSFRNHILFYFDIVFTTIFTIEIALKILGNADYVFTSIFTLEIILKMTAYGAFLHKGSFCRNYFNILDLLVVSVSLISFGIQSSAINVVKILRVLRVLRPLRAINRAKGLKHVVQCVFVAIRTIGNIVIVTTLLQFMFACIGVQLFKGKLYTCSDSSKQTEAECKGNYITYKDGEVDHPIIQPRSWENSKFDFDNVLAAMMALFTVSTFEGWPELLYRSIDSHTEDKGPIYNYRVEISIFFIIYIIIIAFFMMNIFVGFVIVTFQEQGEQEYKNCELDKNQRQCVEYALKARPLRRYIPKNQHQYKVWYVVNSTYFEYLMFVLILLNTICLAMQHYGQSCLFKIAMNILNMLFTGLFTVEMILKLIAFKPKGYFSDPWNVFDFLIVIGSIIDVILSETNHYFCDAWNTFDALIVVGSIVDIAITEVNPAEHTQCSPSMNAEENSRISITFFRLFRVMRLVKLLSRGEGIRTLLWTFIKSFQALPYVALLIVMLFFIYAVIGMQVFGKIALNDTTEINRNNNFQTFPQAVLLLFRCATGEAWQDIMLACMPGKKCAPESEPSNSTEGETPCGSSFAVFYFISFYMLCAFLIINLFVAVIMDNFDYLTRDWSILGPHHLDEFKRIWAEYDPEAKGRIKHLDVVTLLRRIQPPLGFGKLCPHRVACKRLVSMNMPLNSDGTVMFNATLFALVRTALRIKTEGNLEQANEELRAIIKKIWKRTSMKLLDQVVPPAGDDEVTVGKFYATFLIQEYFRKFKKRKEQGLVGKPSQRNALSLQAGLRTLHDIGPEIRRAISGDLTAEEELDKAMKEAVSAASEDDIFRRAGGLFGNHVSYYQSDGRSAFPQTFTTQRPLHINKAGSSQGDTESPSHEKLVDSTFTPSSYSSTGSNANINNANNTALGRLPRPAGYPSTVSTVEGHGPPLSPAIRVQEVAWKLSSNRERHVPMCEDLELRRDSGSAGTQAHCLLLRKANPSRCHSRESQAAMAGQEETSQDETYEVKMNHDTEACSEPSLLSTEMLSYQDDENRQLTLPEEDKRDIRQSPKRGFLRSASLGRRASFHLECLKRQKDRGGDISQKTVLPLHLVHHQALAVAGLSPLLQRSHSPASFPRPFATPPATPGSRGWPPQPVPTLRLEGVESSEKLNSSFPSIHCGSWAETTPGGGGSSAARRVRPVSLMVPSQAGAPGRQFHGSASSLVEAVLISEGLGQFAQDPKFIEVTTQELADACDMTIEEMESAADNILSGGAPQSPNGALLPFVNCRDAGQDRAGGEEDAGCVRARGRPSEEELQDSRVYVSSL
UniProt Q9UKA4: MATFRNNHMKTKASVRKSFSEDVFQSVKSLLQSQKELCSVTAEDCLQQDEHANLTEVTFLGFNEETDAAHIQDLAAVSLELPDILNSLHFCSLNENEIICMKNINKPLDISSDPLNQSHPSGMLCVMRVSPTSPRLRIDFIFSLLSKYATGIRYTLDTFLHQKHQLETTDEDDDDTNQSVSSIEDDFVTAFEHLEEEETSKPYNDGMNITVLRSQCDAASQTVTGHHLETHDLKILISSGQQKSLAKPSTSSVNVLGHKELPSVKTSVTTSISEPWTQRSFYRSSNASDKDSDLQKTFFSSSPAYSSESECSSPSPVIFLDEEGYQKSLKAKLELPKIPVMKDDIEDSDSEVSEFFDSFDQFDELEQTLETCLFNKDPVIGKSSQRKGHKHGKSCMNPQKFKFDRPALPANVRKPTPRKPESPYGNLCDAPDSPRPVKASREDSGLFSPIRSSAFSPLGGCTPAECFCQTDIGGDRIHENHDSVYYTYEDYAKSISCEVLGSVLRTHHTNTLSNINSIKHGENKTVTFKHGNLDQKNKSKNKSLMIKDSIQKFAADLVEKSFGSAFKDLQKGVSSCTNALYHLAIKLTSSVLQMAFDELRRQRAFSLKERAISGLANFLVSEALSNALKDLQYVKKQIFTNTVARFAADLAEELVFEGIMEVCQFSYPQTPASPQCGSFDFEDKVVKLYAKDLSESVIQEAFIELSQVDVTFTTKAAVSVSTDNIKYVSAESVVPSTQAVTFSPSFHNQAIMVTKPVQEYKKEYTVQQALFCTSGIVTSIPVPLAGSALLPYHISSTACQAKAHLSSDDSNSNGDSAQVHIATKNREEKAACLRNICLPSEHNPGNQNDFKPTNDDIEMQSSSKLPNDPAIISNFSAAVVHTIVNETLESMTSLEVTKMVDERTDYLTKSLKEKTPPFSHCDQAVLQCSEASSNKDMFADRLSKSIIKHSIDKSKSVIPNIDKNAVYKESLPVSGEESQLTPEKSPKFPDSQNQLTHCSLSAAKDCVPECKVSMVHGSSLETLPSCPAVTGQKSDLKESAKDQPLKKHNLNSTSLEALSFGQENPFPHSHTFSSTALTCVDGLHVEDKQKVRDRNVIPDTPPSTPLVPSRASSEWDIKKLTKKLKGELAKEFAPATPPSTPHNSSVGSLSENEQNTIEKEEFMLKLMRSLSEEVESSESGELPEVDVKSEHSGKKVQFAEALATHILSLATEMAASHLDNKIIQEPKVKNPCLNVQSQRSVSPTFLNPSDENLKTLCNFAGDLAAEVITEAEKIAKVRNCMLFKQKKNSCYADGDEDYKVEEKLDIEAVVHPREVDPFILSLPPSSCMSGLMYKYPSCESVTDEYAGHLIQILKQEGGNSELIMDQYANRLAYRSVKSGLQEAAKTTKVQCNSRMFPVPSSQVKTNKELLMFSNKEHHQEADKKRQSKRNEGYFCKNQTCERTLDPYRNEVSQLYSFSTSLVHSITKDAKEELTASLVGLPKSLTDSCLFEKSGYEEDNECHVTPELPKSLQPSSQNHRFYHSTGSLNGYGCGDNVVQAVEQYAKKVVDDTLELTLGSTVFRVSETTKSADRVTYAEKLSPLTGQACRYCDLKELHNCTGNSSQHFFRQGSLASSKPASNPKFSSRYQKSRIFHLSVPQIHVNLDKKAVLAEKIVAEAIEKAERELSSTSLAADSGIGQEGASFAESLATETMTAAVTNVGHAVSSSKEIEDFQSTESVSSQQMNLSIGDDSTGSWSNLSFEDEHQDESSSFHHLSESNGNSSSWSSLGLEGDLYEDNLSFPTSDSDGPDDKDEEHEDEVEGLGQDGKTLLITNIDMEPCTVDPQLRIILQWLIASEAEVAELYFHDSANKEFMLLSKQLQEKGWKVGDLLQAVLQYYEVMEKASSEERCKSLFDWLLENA
UniProt P01024, residues 23-1663: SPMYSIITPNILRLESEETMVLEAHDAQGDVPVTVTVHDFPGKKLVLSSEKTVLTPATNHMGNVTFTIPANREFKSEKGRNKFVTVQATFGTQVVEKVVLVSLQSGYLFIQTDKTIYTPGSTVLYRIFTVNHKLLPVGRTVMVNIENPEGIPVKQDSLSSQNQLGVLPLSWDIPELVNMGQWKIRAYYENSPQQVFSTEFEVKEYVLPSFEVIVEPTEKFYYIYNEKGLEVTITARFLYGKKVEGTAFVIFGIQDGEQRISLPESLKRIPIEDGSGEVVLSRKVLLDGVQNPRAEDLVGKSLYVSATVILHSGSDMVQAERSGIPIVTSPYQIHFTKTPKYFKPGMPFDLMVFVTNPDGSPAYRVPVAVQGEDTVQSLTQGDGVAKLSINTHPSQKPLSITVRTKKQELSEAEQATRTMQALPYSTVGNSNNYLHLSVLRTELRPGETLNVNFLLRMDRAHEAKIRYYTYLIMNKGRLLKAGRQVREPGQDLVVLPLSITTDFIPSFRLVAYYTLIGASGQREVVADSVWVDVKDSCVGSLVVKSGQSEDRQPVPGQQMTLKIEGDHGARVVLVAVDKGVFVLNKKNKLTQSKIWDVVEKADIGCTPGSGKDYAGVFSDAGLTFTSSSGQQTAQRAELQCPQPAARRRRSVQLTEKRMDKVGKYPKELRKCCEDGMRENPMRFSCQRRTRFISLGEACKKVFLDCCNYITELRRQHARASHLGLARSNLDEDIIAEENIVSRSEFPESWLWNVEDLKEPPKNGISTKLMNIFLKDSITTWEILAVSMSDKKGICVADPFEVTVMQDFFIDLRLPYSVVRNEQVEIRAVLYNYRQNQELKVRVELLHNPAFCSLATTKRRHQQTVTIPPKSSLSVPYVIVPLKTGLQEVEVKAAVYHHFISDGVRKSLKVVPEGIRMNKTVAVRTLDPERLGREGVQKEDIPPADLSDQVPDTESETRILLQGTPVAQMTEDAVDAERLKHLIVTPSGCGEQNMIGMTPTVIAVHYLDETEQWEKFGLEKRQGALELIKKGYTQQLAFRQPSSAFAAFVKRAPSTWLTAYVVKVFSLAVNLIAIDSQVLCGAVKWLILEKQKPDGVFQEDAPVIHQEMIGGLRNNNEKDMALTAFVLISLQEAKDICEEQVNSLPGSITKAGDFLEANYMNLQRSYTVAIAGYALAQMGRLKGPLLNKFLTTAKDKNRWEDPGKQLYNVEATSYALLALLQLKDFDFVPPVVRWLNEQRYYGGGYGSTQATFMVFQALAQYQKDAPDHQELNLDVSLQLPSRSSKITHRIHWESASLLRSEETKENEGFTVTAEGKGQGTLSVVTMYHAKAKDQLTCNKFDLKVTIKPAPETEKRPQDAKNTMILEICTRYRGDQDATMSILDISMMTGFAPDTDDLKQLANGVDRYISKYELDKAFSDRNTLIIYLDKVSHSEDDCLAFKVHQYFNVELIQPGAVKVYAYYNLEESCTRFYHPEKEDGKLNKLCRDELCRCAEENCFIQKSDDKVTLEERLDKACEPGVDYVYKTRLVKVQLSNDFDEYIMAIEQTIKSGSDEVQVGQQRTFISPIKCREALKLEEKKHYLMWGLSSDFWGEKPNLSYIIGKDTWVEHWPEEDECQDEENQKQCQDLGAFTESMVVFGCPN

Assay [2] concerns the target CACNA1C (human (endogenous in induced neurons)) (UniProt Q13936). The assay can be described thus: affinity purification with mass spectrometry.

Results are given in words; binding and its absence hold for the method and conditions named. Binding seen in cells or lysates may run through a third protein. These calls come from enrichment with a bait or labelling near it, and not all partners need be listed.

For two substances, binding results are on record in doi:10.1101/2021.10.07.21264568.

In the case of AKAP11 (from UniProt Q9UKA4 1-1901), the binding result in assay [1] is on record as “binds”.
Take C3 (from UniProt P01024 23-1663): the binding result in assay [2] was “binds”.
